Bridge positions count the residues as written; N and C are the ends. Peptide text beside a SMILES is read from it.
Assay: RTD-1 plasma pharmacokinetics
Description: RTD-1 plasma levels were also analyzed 60 or 240 min after additional daily 5 mg/kg i.p. doses administered up to 6 days.
Single dose PK of RTD-1 was evaluated by quantifying plasma peptide concentrations at intervals following 5 mg/kg bolus injections administered i.v. and i.p. to CD-1 mice. At indicated intervals, plasma was prepared from EDTA-anticoagulated blood collected aseptically by terminal cardiac puncture. Plasma was diluted 1:10 or 1:20 into 5% formic/5% acetonitrile. RTD-1 plasma concentrations were determined by reverse-phase liquid chromatography (XBridge phenyl 3.5 µm column, Waters) on an Acquity H-Class UPLC (Waters) with tandem electrospray mass spectroscopy on a Xevo TQ-S running MassLynx V4.1 (Waters). Quantitative mass spectroscopy was performed by multiple-reaction monitoring transition 417.38 > 517.14, with area under the curve determined by TargetLynx (Waters). Pharmacokinetic modeling of intravenous RTD-1 concentration-time data was performed with ADAPT (version 5) software using the naïve pooled data approach. One- and two-compartment models were evaluated. […] Area under the curve (AUC24) was calculated by taking the average of RTD-1 concentrations at each time point and applying the linear trapezoidal method. Bioavailability (F) for i.p. injection was determined using the ratio of AUCs from i.p. and i.v.

SMILES: CC[C@H](C)[C@@H]1NC(=O)[C@@H]2CSSC[C@H](NC(=O)[C@H](CCCNC(=N)N)NC(=O)[C@@H]3CSSC[C@H](NC1=O)C(=O)N[C@@H]([C@@H](C)O)C(=O)N[C@@H](CCCNC(=N)N)C(=O)NCC(=O)N[C@@H](Cc1ccccc1)C(=O)N3)C(=O)N[C@@H](CC(C)C)C(=O)N[C@H]1CSSC[C@H](NC(=O)[C@H](C(C)C)NC(=O)CNC(=O)[C@H](CCCNC(=N)N)NC(=O)[C@H](CCCNC(=N)N)NC1=O)C(=O)N[C@@H](CCCNC(=N)N)C(=O)N2 [RTD-1, Rhesus theta (θ) defensin-1] (cyclo(GFCRCLCRRGVCRCICTR); disulfide 3-16, 5-14, 7-12 (inferred); ring closure inferred)
- MICs in 50% mouse serum relative to plasma Cmax (5 mg/kg i.p.): at least 100 fold
- Cmax as share of RTD-1 levels required for in vitro antifungal activity in 50% mouse serum (efficacious peptide doses): less than 1%
